Earlier results on 1 compound are cited in US9114165B2 (Spain Pharma S.A., priority 2010, dated 2015).

Structures are written as SMILES. Converted amounts (≈) assume the structure as drawn. Read-outs that look alike come from different tables or passages of the source.

The conditions of this data set: in water.

As for `CC(C)Cc1ccc(C(C)C(=O)O)cc1` (centres unmarked) [Ibuprofen, 2-(4-Isobutylphenyl)-propionic acid], the solubility runs as follows: (at acidic pHs) 78 micrograms/mL; (at alkaline pHs) 291 mg/mL (≈ 1410 mM).
